Assay results reported in the supplement of paper PMC10849652.
The list shows a part of the results. Residues, ends and D or L forms follow the SMILES beside them. *: point of attachment. Cbz = O=C(OCc1ccccc1)*

The chains behind the UniProt entries cited, without tags or fusion partners. Where a name states a change or a piece, a line headed by the entry shows the natural chain unless it says otherwise.
UniProt P07951, whole entry, looked up: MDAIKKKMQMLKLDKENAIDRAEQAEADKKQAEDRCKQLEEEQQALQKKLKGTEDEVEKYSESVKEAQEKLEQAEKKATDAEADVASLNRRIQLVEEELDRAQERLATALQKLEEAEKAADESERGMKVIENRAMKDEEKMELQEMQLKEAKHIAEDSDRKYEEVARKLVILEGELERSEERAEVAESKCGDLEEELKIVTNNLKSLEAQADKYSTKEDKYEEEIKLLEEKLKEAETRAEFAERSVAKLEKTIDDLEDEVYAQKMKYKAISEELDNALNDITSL
UniProt O14787: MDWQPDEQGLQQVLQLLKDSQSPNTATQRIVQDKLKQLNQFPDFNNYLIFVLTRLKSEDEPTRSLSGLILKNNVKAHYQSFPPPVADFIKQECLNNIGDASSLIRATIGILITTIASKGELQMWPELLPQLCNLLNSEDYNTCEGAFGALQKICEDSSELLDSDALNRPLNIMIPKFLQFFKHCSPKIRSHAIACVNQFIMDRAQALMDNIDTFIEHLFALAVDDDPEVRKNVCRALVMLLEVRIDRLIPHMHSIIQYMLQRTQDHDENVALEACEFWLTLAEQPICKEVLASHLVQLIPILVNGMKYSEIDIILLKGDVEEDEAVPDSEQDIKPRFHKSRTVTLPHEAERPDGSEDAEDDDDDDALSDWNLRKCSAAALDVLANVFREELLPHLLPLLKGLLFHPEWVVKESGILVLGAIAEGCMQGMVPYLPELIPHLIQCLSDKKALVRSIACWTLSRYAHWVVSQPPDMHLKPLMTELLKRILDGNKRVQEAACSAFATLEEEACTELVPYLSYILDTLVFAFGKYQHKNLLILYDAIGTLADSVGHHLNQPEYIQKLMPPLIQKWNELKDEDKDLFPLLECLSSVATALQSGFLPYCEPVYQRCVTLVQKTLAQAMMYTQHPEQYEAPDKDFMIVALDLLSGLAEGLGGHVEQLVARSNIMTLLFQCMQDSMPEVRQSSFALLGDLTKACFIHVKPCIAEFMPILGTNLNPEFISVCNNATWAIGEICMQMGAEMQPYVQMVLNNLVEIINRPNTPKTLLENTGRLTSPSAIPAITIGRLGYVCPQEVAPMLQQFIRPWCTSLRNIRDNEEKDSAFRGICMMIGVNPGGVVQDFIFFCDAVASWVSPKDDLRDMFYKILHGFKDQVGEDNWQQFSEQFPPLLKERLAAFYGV
UniProt Q9UPQ9, whole entry, looked up: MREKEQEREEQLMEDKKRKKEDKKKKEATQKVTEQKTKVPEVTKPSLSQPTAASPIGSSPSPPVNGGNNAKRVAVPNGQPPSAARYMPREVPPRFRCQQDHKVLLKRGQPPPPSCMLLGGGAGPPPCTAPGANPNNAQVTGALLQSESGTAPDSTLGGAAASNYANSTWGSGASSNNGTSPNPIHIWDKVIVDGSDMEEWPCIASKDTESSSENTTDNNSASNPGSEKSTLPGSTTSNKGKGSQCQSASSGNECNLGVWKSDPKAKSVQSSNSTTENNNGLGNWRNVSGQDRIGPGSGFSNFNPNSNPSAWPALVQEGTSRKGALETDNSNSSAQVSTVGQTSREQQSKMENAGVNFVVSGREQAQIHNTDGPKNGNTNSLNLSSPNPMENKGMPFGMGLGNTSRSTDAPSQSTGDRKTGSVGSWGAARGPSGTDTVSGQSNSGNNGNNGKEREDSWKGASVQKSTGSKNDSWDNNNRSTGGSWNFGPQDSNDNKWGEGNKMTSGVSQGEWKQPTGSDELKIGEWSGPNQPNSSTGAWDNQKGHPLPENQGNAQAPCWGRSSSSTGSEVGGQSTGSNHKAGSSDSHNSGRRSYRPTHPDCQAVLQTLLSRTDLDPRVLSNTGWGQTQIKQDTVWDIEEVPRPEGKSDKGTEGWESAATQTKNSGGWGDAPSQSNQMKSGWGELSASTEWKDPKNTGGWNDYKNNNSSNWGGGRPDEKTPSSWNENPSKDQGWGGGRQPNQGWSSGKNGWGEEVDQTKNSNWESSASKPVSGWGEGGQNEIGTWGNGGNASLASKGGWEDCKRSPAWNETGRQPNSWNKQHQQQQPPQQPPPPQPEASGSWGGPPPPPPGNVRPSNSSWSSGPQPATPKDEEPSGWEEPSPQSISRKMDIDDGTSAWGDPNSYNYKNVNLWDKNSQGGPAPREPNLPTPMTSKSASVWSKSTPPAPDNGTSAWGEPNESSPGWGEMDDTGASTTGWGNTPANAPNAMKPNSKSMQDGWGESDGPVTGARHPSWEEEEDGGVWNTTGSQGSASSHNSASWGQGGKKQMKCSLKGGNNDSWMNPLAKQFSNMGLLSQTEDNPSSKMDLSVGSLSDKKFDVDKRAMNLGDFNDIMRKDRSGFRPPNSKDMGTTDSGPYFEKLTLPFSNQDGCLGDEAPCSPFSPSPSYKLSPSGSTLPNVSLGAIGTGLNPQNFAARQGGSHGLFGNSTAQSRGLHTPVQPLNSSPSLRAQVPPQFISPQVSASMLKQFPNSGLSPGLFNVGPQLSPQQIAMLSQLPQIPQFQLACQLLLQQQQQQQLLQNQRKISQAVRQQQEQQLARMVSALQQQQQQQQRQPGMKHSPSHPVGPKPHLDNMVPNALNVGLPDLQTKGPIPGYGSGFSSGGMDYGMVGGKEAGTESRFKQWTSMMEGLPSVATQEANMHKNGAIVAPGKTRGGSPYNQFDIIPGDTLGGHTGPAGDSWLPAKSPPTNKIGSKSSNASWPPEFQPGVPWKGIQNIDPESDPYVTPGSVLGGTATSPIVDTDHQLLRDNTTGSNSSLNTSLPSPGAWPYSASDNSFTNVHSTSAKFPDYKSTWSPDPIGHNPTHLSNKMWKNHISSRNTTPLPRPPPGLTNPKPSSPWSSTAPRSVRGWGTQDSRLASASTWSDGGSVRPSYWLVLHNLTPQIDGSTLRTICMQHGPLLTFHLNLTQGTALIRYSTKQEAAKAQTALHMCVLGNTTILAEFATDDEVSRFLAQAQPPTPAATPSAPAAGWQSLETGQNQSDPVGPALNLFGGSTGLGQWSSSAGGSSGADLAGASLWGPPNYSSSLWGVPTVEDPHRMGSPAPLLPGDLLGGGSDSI
UniProt Q86SZ2: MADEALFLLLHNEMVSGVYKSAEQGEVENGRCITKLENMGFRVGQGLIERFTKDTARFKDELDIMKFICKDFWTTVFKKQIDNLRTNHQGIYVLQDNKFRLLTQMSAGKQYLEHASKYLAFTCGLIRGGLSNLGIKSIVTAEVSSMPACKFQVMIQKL
UniProt Q9Y5R8, whole entry, looked up: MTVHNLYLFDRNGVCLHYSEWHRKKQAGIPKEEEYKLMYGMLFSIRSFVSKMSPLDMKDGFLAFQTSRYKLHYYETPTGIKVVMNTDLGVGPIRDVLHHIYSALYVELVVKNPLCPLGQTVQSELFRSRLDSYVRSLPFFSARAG
UniProt Q9C035: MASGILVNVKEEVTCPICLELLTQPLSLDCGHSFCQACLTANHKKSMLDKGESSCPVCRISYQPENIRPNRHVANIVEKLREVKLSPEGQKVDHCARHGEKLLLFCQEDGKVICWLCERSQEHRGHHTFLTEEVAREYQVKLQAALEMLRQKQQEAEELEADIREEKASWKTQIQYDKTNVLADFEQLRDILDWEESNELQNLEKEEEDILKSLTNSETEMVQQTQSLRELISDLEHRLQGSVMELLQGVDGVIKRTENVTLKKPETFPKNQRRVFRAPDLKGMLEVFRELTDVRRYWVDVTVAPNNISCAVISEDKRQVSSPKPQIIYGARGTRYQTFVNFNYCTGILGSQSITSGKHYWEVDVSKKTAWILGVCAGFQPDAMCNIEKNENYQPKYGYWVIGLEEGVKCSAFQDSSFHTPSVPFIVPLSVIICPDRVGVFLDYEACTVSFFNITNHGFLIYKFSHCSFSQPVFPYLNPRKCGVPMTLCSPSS
UniProt Q6Q0C0: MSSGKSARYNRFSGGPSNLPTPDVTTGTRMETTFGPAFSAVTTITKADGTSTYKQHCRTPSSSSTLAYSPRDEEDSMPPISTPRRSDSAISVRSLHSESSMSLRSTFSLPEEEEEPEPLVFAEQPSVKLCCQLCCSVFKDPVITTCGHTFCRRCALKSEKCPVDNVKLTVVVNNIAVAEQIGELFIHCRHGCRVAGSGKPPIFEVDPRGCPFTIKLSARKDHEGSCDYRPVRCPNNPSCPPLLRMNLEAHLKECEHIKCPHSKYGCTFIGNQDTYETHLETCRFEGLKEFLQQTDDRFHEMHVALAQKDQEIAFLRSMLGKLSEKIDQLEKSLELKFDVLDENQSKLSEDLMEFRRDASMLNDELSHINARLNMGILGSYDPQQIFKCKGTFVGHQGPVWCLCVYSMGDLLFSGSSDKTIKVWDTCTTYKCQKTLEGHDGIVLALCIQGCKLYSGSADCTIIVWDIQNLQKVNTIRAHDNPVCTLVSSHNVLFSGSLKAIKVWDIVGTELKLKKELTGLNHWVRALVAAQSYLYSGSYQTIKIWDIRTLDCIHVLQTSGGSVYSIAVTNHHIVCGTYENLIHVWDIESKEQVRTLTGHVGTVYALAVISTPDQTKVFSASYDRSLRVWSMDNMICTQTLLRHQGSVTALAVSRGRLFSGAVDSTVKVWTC
UniProt Q6ZVM7: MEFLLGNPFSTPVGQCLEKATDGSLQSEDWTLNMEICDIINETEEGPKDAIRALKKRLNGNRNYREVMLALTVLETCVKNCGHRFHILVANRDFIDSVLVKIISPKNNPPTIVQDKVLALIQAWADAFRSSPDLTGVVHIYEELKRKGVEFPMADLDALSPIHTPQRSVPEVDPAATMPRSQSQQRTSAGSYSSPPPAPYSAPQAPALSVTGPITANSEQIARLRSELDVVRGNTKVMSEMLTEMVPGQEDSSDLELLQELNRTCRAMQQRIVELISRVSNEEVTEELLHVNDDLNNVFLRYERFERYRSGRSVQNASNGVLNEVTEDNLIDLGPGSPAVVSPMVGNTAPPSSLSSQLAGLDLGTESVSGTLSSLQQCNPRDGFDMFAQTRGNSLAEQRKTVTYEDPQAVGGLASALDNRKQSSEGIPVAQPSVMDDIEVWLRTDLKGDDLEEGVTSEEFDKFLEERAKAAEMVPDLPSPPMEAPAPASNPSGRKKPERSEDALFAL
UniProt O43399: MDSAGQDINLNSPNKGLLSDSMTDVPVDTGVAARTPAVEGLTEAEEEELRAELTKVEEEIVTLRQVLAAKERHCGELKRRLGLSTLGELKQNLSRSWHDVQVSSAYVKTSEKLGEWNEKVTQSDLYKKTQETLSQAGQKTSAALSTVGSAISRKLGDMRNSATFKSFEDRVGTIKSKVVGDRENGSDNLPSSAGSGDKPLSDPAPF
UniProt P36406: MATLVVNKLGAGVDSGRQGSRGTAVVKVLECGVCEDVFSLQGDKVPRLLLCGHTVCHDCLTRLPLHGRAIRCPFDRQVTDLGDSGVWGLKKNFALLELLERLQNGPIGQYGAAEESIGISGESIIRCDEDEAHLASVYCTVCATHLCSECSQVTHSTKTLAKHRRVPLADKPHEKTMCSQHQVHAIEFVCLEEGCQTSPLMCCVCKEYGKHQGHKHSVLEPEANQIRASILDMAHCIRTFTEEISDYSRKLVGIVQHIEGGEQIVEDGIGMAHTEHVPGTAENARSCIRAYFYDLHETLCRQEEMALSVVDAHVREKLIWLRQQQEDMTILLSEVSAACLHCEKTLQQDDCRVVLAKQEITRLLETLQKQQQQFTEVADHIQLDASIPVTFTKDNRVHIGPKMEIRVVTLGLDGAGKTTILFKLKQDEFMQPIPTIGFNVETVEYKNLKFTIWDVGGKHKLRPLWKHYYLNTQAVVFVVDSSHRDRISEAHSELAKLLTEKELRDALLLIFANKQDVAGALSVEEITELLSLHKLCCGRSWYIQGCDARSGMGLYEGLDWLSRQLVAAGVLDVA
UniProt Q13595: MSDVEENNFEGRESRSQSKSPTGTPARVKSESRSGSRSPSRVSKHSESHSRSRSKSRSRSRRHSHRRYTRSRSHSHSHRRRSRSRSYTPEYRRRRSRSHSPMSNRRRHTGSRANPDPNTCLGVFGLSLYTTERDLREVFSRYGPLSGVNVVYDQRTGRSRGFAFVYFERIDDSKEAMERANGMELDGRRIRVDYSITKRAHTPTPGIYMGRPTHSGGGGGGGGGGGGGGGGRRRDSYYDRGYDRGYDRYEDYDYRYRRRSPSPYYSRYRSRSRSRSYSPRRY
UniProt Q9H3H1: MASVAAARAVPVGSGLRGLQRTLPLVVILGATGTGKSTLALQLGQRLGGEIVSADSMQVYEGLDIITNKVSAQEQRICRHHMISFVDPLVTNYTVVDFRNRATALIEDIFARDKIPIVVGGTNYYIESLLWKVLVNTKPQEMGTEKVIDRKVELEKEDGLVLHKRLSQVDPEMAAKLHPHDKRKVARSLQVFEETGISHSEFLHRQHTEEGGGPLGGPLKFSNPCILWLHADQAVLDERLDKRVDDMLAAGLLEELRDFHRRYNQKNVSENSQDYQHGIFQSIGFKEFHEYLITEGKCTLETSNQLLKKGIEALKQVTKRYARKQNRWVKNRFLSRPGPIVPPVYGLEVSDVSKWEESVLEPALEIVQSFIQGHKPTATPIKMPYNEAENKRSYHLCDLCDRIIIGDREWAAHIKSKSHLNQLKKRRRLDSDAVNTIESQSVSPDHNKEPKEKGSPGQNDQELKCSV

Assays:
Experiment in all cases: log2 fold change, soluble protein after heating vs DMSO (PISA); higher = thermal stabilisation; K562 cells, 10 uM, 30 min; active = over 0.2 and 3.5 SD of the protein, either way, in both replicates (recomputed)
erlotinib = compound: C#Cc1cccc(Nc2ncnc3cc(OCCOC)c(OCCOC)cc23)c1 [erlotinib]
In short: (§1)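 K562 cells at 2×10^6 cells/mL were treated with 10 μM compound for 30 min. Aliquots were heated for 3 min across 48°C-58°C, pooled, and extracted in PBS with 0.5% NP-40 at 4°C; soluble protein was the supernatant after 21,000xg for 90 min. Soluble protein was quantified by TMTpro 16plex LC-MS/MS with channel sums equalised, and reported as log2 fold change in thermal stability against DMSO controls, with values from duplicates.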

[1] = compound: C/C(=N\NC(=O)C1=CC(=CC=C1)S(=O)(=O)N2CCOCC2)/C3=C(C=CC(=C3)Cl)O
In short: as §1

[2] = compound: C1=CC(=C(C=C1Cl)C2=NC3=NC=CN=C3C(=N2)NC4=CC=NC=C4)F
In short: as §1

[3] = compound: C1=CC(=CC=C1C2=NC3=C(N2)C=C(C=C3)C(=O)N)OC4=CC=C(C=C4)Cl
In short: as §1

[4] = compound: C1=CC2=C(C=CC(=C2)/C=C\3/C(=O)NC(=NCC4=CC=CS4)S3)N=C1
In short: as §1

[5] = compound: C1=CC2=NC=CN=C2C=C1/C=C/3\C(=O)NC(=O)S3
In short: as §1

[6] = compound: C1=CC=C(C=C1)C2=NC(=C(N2)C3=CC=NC=C3)C4=CC(=C(C=C4)Cl)O
In short: as §1

[7] = compound: C1=CC=C2C(=C1)C3=NNC4=CC=CC(=C43)C2=O
In short: as §1

[8] = compound: C1CCN(C1)C(=O)NC2=CC=CC(=C2)NC3=NC=C(C(=N3)NCCC4=CN=CN4)Br
In short: as §1

[9] = compound: C1CN(CCC1(CC2=CC=C(C=C2)Cl)N)C3=NC=NC4=C3C=CN4
In short: as §1

IRAK-1-4 Inhibitor I = compound: C1COCCN1CCN2C3=CC=CC=C3N=C2NC(=O)C4=CC(=CC=C4)[N+](=O)[O-] [IRAK-1-4 Inhibitor I]
In short: as §1

ibrutinib = compound: C=CC(=O)N1CCC[C@@H](n2nc(-c3ccc(Oc4ccccc4)cc3)c3c(N)ncnc32)C1 [ibrutinib]
In short: as §1

[10] = compound: CC(=O)c1cnc2ccc(-c3cc(Cl)c(O)c(Cl)c3)nc2c1N[C@H]1CC[C@H](CN(C)C)CC1
In short: as §1

ralimetinib = compound: CC(C)(C)Cn1c(N)nc2ccc(-c3[nH]c(C(C)(C)C)nc3-c3ccc(F)cc3)nc21 [ralimetinib]
In short: as §1

[11] = compound: CC(C)(O)CC(=O)NCCn1ccc2ncnc(Nc3ccc(Oc4cccc(C(F)(F)F)c4)c(Cl)c3)c21
In short: as §1

[12] = compound: CC(C)C1=C2N=C(C=C(N2N=C1)NCC3=CC=CC=C3)NCCCCCCN
In short: as §1

[13] = compound: CC(C)C[C@@H](C=O)NC(=O)[C@H](CC(C)C)NC(=O)[C@H](CC(C)C)NC(=O)OCc1ccccc1
In short: as §1

pinometostat = compound: CC(C)N(C[C@H]1O[C@@H](n2cnc3c(N)ncnc32)[C@H](O)[C@@H]1O)[C@H]1C[C@@H](CCc2nc3cc(C(C)(C)C)ccc3[nH]2)C1 [pinometostat]
In short: as §1

[14] = compound: CC1=C(C2=C(C=C1)C(=O)C3=CC=CC=C3N2CCCN)C
In short: as §1

[15] = compound: CC1=C(C(CC(=O)N1)C2=CC=C(C=C2)C(F)(F)F)C(=O)NC3=C(C=C4C(=C3)C=NN4)F
In short: as §1

| Target | log2 fold change (erlotinib) | log2 fold change [1] | log2 fold change [2] | log2 fold change [3] | log2 fold change [4] | log2 fold change [5] | log2 fold change [6] | log2 fold change [7] | log2 fold change [8] | log2 fold change [9] | log2 fold change (IRAK-1-4 Inhibitor I) | log2 fold change (ibrutinib) | log2 fold change [10] | log2 fold change (ralimetinib) | log2 fold change [11] | log2 fold change [12] | log2 fold change [13] | log2 fold change (pinometostat) | log2 fold change [14] | log2 fold change [15] |
| --- | --- | --- | --- | --- | --- | --- | --- | --- | --- | --- | --- | --- | --- | --- | --- | --- | --- | --- | --- | --- |
| TPM2 (UniProt P07951) | inactive: -0.05 | inactive: 0.009 | inactive: 0.417 | inactive: 0.021 | inactive: -0.146 | inactive: 0.025 | inactive: 0.102 | inactive: 0.02 | inactive: -0.069 | inactive: 0.101 | inactive: 0.013 | inactive: -0.018 | inactive: 0.027 | inactive: 0.059 | inactive: -0.053 | inactive: 0.037 | inactive: -0.163 | inactive: -0.1 | inactive: -0.103 | – |
| TNPO2 (UniProt O14787) | inactive: 0.075 | inactive: 0.115 | inactive: 0.033 | inactive: -0.064 | inactive: 0.077 | inactive: 0.017 | inactive: 0.018 | inactive: -0.008 | inactive: 0.027 | inactive: -0.008 | inactive: -0.088 | inactive: -0.023 | inactive: -0.051 | inactive: 0.027 | inactive: -0.138 | active: -0.339 | inactive: -0.042 | inactive: 0.012 | inactive: -0.171 | – |
| TRMT5 (UniProt Q32P41) | inactive: 0.128 | inactive: -0.052 | inactive: -0.093 | inactive: 0.118 | inactive: 0.193 | inactive: 0.064 | – | inactive: 0.019 | inactive: -0.105 | inactive: -0.129 | inactive: -0.528 | inactive: 0.002 | inactive: -0.265 | – | inactive: -0.118 | inactive: -0.453 | – | inactive: 0.237 | inactive: 0.215 | inactive: -0.254 |
| TNRC6B (UniProt Q9UPQ9) | inactive: 0.049 | inactive: -0.014 | inactive: -0.116 | inactive: -0.031 | inactive: 0.118 | inactive: -0.152 | – | inactive: -0.059 | inactive: -0.065 | inactive: -0.002 | inactive: 0 | inactive: 0.305 | inactive: 0.022 | – | inactive: 0.031 | inactive: 0.084 | – | inactive: 0.115 | inactive: 0.202 | – |
| TRMT61A (UniProt Q96FX7) | inactive: -0.03 | inactive: -0.062 | active: -0.354 | inactive: 0.087 | inactive: -0.059 | inactive: -0.07 | inactive: -0.017 | inactive: -0.046 | inactive: 0.054 | inactive: 0.054 | inactive: 0.07 | inactive: 0.14 | inactive: -0.002 | inactive: 0.06 | inactive: 0.109 | inactive: -0.099 | inactive: 0.086 | inactive: 0.188 | inactive: -0.401 | – |
| TRAPPC6B (UniProt Q86SZ2) | inactive: 0.026 | inactive: 0.07 | active: 0.315 | inactive: -0.016 | inactive: 0.011 | inactive: -0.006 | inactive: -0.016 | inactive: -0.014 | inactive: -0.048 | inactive: 0.018 | inactive: -0.022 | inactive: 0.032 | inactive: -0.001 | inactive: -0.015 | inactive: -0.138 | inactive: 0.032 | inactive: 0.032 | inactive: -0.036 | inactive: 0.004 | – |
| TRAPPC1 (UniProt Q9Y5R8) | inactive: 0.019 | inactive: 0.095 | – | inactive: 0.08 | inactive: 0.206 | inactive: 0.014 | inactive: -0.066 | inactive: -0.027 | inactive: 0.038 | inactive: -0.045 | inactive: -0.031 | inactive: 0 | inactive: -0.044 | inactive: -0.043 | – | inactive: 0.029 | inactive: 0.067 | inactive: -0.042 | inactive: 0.031 | inactive: -0.08 |
| TRIM5 (UniProt Q9C035) | inactive: -0.061 | inactive: 0.075 | inactive: 0.111 | inactive: 0.162 | inactive: 0.012 | – | inactive: -0.182 | inactive: 0.019 | inactive: -0.077 | inactive: -0.01 | – | – | inactive: 0 | inactive: 0.094 | inactive: -0.045 | inactive: -0.176 | inactive: 0.391 | – | inactive: 0.047 | – |
| TRAF7 (UniProt Q6Q0C0) | inactive: 0.021 | inactive: 0.031 | inactive: 0.054 | inactive: 0.1 | inactive: -0.105 | inactive: -0.064 | – | inactive: -0.012 | – | – | inactive: -0.013 | inactive: -0.018 | inactive: -0.311 | – | inactive: -0.06 | inactive: 0.066 | – | inactive: -0.156 | – | – |
| TOM1L2 (UniProt Q6ZVM7) | inactive: -0.048 | inactive: 0.06 | inactive: 0.043 | inactive: 0.013 | inactive: 0.025 | – | – | inactive: -0.026 | – | – | inactive: -0.049 | – | inactive: -0.031 | – | inactive: -0.089 | inactive: 0.049 | – | inactive: 0.036 | – | – |
| TPD52L2 isoform 3 (UniProt O43399) | – | inactive: 0.262 | inactive: 0.007 | – | inactive: 0.474 | – | – | inactive: 0.065 | inactive: 0.02 | inactive: 0.066 | – | – | inactive: -0.1 | – | inactive: -0.07 | – | – | – | inactive: 0.161 | inactive: -0.089 |
| TRIM23 (UniProt P36406) | inactive: 0.006 | – | – | inactive: 0.075 | – | inactive: -0.096 | inactive: 0.061 | – | inactive: -0.202 | inactive: 0.161 | inactive: 0.064 | inactive: 0.072 | – | inactive: -0.034 | – | inactive: 0.146 | inactive: -0.019 | inactive: -0.024 | inactive: 0.242 | – |
| TRA2A (UniProt Q13595) | – | – | – | – | – | inactive: 0.02 | – | – | inactive: 0.093 | inactive: -0.184 | – | inactive: 0.171 | – | – | – | – | – | – | inactive: 0.093 | inactive: 0.2 |
| TRAM2 (UniProt Q15035) | inactive: 0.209 | inactive: -0.024 | – | inactive: -0.177 | inactive: 0.091 | inactive: 0.074 | – | inactive: -0.061 | inactive: 0.058 | inactive: 0.124 | – | inactive: -0.165 | inactive: -0.113 | – | – | inactive: -0.251 | – | – | inactive: 0.134 | – |
| TRIT1 (UniProt Q9H3H1) | – | – | – | – | – | – | – | – | – | – | inactive: 0 | – | – | – | – | – | – | inactive: 0.115 | – | – |
| TRUB2 (UniProt O95900) | inactive: -0.404 | – | inactive: -0.147 | inactive: 0.195 | – | – | – | – | – | – | inactive: -0.148 | – | – | – | inactive: 0.074 | inactive: -0.207 | – | inactive: -0.125 | – | – |

Reformatted comma-delimited: entries from further up
Target,log2 fold change (erlotinib),log2 fold change [1],log2 fold change [2],log2 fold change [3],log2 fold change [4],log2 fold change [5],log2 fold change [6],log2 fold change [7],log2 fold change [8],log2 fold change [9],log2 fold change (IRAK-1-4 Inhibitor I),log2 fold change (ibrutinib),log2 fold change [10],log2 fold change (ralimetinib),log2 fold change [11],log2 fold change [12],log2 fold change [13],log2 fold change (pinometostat),log2 fold change [14],log2 fold change [15]
TRAM2 (UniProt Q15035),inactive: 0.209,inactive: -0.024,–,inactive: -0.177,inactive: 0.091,inactive: 0.074,–,inactive: -0.061,inactive: 0.058,inactive: 0.124,–,inactive: -0.165,inactive: -0.113,–,–,inactive: -0.251,–,–,inactive: 0.134,–
TRIT1 (UniProt Q9H3H1),–,–,–,–,–,–,–,–,–,–,inactive: 0,–,–,–,–,–,–,inactive: 0.115,–,–
